PubChem BioAssay AID686943 | Drosophila RNAi Screening Center – 2013

- Assay: 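Knockdowns that increase or decrease active ERK after insulin receptor stimulation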 (primary screen)
- System: Drosophila S2R+ haemocyte-like cells expressing YFP-tagged ERK (Rolled)
- Reagent: long dsRNA against Drosophila genes
- Treatment: insulin stimulation versus unstimulated cells; dose and duration not given
- Measured: 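Antibody staining for doubly phosphorylated ERK divided by ERK-YFP signal, as plate z-scores, in insulin-treated and untreated cells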
- Scale: replicate 1, z-score of dpERK with insulin and replicate 2, z-score of dpERK with insulin: higher = more active ERK per ERK-YFP after insulin; replicate 1, z-score of dpERK under basal conditions: higher = more basal active ERK per ERK-YFP; replicate 1, z-score of ERK-YFP with insulin: higher = more YFP-tagged ERK signal
The deposit covers about 23,000 reagents; shown is an unselected part of those that have a named target and a result. 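Extra replicates exist only for a retested subset of genes; insulin dose and duration not given; both raised and lowered dpERK matter.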 The numbers tell different reagents against one gene apart. Names joined by + are all predicted targets of the reagent. Not given: the amount of reagent, the time to read-out.

| gene | reagent | replicate 1, z-score of dpERK with insulin | replicate 2, z-score of dpERK with insulin | replicate 1, z-score of dpERK under basal conditions | replicate 1, z-score of ERK-YFP with insulin |
| --- | --- | --- | --- | --- | --- |
| CG30268 (GeneID 37610) | 1 | -0.44 | 0.13 | -1.03 | 1.53 |
| CG18428 (GeneID 42857) | 1 | -0.64 | 0 | 0.49 | 0.34 |
| PSMG1 (GeneID 40719) | 1 | -0.74 | -0.36 | -0.25 | -0.21 |
| POLDIP2 (GeneID 40655) | 1 | 1.38 | 0.23 | -0.53 | 1.45 |
| Pdk1 (GeneID 38017) | 1 | 2.26 | 2.45 | -1.99 | -1.45 |
| asRNA:CR43468 + Lfg | 1 | 0.96 | -0.53 | -0.36 | -0.46 |
| Rh6 (GeneID 41889) | 1 | 0.27 | -0.56 | -0.53 | -0.53 |
| RpL27 (GeneID 43103) | 1 | 0.15 | -0.66 | -1.48 | -4.62 |
| Xbp1 (GeneID 44226) | 1 | 1.64 | 0.96 | 0.68 | 0.49 |
| Xbp1 (GeneID 44226) | 2 | 0.08 | 0.95 | 0.54 | -0.12 |
| CG13847 (GeneID 42636) | 1 | -1.89 | 0.44 | -0.17 | -1.95 |
| CG13044 (GeneID 39795) | 1 | -0.11 | -0.01 | 0.83 | 0.07 |
| tank (GeneID 33684) | 1 | 0.06 | 0.06 | -0.11 | 0.45 |
| ND-51L1 (GeneID 36998) | 1 | 0.26 | 0.04 | -0.66 | 0.24 |
| CG14332 (GeneID 42098) | 1 | 0.84 | 0.09 | 0.63 | -0.69 |
| RpS21 (GeneID 33487) | 1 | -1.13 | -2.28 | -0.45 | -3.66 |
| ATPsynGL (GeneID 34054) | 1 | 0.14 | 0.16 | -0.18 | -1.1 |
| CR1075 (GeneID 12798037) | 1 | 0.28 | 0.44 | 0.38 | -0.09 |
| alphaTub85E (GeneID 41183) | 1 | -2.9 | -2.77 | 3.49 | -0.49 |
| CG34167 (GeneID 5740831) | 1 | -0.19 | 0.3 | -0.35 | 1.1 |
| Gr59b (GeneID 117484) | 1 | 0.13 | -0.18 | 0.78 | 0.28 |

Entries listed so far whose gene name starts with R or r (3):
| gene | reagent | replicate 1, z-score of dpERK with insulin | replicate 2, z-score of dpERK with insulin | replicate 1, z-score of dpERK under basal conditions | replicate 1, z-score of ERK-YFP with insulin |
| --- | --- | --- | --- | --- | --- |
| Rh6 (GeneID 41889) | 1 | 0.27 | -0.56 | -0.53 | -0.53 |
| RpL27 (GeneID 43103) | 1 | 0.15 | -0.66 | -1.48 | -4.62 |
| RpS21 (GeneID 33487) | 1 | -1.13 | -2.28 | -0.45 | -3.66 |

Further entries:
| gene | reagent | replicate 1, z-score of dpERK with insulin | replicate 2, z-score of dpERK with insulin | replicate 1, z-score of dpERK under basal conditions | replicate 1, z-score of ERK-YFP with insulin |
| --- | --- | --- | --- | --- | --- |
| Dph5 (GeneID 42663) | 1 | -0.02 | 0.12 | -0.27 | -0.09 |
| CG11248 (GeneID 40411) | 1 | -0.19 | -0.26 | 0.16 | 0 |
| Faa (GeneID 45577) | 1 | -0.06 | 0.41 | 1.19 | 0.33 |
| asf1 (GeneID 40141) | 1 | -2.97 | -1.34 | 0.41 | 2.69 |
| CG18810 (GeneID 59171) | 1 | -1.13 | -1.16 | -0.7 | 0.27 |
| Orct (GeneID 42891) | 1 | 0.3 | 0.53 | 0.15 | 0.31 |
| CG13170 (GeneID 36325) | 1 | -1.98 | -2.34 | -1.65 | -0.85 |
| lost (GeneID 40559) | 1 | -0.41 | 0.12 | 0.6 | 0.2 |
| lost (GeneID 40559) | 2 | -0.29 | 1.98 | -1.2 | 0.63 |
| lost (GeneID 40559) | 3 | -0.24 | 0.59 | -0.93 | -0.63 |
| Ugt37A3 (GeneID 41574) | 1 | -0.17 | 0.18 | -1.08 | 0.44 |
| Psi (GeneID 36889) | 1 | 2.09 | 1.42 | -2.19 | 1.52 |
| C1GalTA (GeneID 34215) | 1 | 0.59 | 0.25 | 1.73 | 0.1 |
| atlas (GeneID 37689) | 1 | 0.14 | 1.16 | 5.09 | 1.65 |
| CG30122 (GeneID 37146) | 1 | 0.73 | 0.88 | 0.6 | 1.63 |
| CG30122 (GeneID 37146) | 2 | 0.17 | 0.07 | 0.04 | 1.43 |
| CG34214 (GeneID 5740774) | 1 | 0.02 | 0.03 | 0.02 | 0.32 |
| CG31933 (GeneID 326176) | 1 | 1.05 | 1.36 | 1.62 | -0.46 |
